# Reference: PubChem BioAssay AID248 (DTP/NCI, 2004)
# The list is a part of this screen's results and no random one: it is rich in T/C values a quarter to a half above the control, in often repeated tests (any T/C) and in doses without a T/C. Further doses and runs are listed elsewhere. T/C is the treated group as % of the vehicle group. Some entries give survivors of the animals treated and no T/C: the source files T/C as zero there, which appears to mark a toxic dose or a test without result, not a measured value. Some survivor counts are full or nearly so, which does not show that the dose was tolerated: survival well below the control is almost never listed, so the zero probably covers shortened survival too. Survivors were counted at the toxicity check, usually on the fifth day, unless a day is given; later deaths do not show. Schedule codes are those of the source, taken here to give the interval after Q, in days (D) or hours (H), and the number of doses after X. For survival time, the PubChem record calls one and a half times the control and up active, and a quarter to a half above the control has no call in these data; cut-offs in other NCI protocols can differ. Brackets with × give the number of equal values in this list. Some T/C values are followed by the survivors on the day toxicity was checked, most often the fifth; where none is given, no animal had died by that day. Some entries were tested several times; the values are given in rising order.
# System: L1210 leukemia ip in BDF1 mice, survival T/C
# Experiment: NCI In Vivo Anticancer Drug Screen. Data for tumor model L1210 Leukemia (intraperitoneal) in B6D2F1 (BDF1) mice
# Conditions: T/C endpoint: mean survival time, higher T/C = longer survival
# [1] = dose: 400.0 mg/kg/injection, schedule: Q01DX001 (ip), vehicle: Klucel (hydroxypropylcellulose) (HPC)
# [2] = dose: 400.0 mg/kg/injection, schedule: Q04DX003 (ip), vehicle: saline with Tween-80
# [3] = dose: 100.0 mg/kg/injection, schedule: Q04DX003 (ip), vehicle: saline with Tween-80
# [4] = dose: 200.0 mg/kg/injection, schedule: Q04DX003 (ip), vehicle: saline with Tween-80
structure (smiles),measurement,setting,value
CC(=O)OC(c1ccccc1)C1CCCCC1N1CCCCC1 (stereo not given),survivor count,[1],2 of 6
CN(C)C=C1C(=O)c2ccccc2C1=O,survivor count,[2],4 of 6
O=[N+]([O-])c1ccc(Nc2ccccc2)c([N+](=O)[O-])c1,survivor count,"dose: 200.0 mg/kg/injection, schedule: Q04DX002 (ip), vehicle: Klucel (hydroxypropylcellulose) (HPC)",3 of 3
CC(=O)CC(=O)Nc1cccc(C)n1,survivor count,"dose: 400.0 mg/kg/injection, schedule: Q01DX001 (ip), vehicle: saline",3 of 6
same,survivor count,"dose: 400.0 mg/kg/injection, schedule: Q04DX002 (ip), vehicle: Klucel (hydroxypropylcellulose) (HPC)",1 of 3
Cc1cc(Cl)c(N)[c]([Hg][I])c1F,survivor count,"dose: 100.0 mg/kg/injection, schedule: Q01DX001 (ip), vehicle: Klucel (hydroxypropylcellulose) (HPC)",0 of 6
same,survivor count,"dose: 200.0 mg/kg/injection, schedule: Q01DX001 (ip), vehicle: Klucel (hydroxypropylcellulose) (HPC)",0 of 6
same,survivor count,[1],0 of 6
CCCC1(CN2c3ccccc3Sc3ccc(Cl)cc32)CCN(CC)C1 (stereo not given),survivor count,"dose: 200.0 mg/kg/injection, schedule: Q04DX003 (ip), vehicle: saline",4 of 6
same,survivor count,"dose: 400.0 mg/kg/injection, schedule: Q04DX003 (ip), vehicle: saline",0 of 6
CS(=O)(=O)OCCN(CCOS(C)(=O)=O)c1ccc(C=Nc2ccc(C(=O)O)c(O)c2)cc1,T/C,"dose: 8.0 mg/kg/injection, schedule: Q01DX009 (ip), vehicle: saline with Tween-80",138 % of control (2×)
same,T/C,"dose: 12.0 mg/kg/injection, schedule: Q01DX009 (ip), vehicle: saline with Tween-80",149 % of control
same,T/C,"dose: 12.5 mg/kg/injection, schedule: Q01DX009 (ip), vehicle: saline with Tween-80",131 % of control
same,T/C,"dose: 12.5 mg/kg/injection, schedule: Q04DX003 (ip), vehicle: saline with Tween-80",129 % of control
same,T/C,"dose: 18.0 mg/kg/injection, schedule: Q01DX009 (ip), vehicle: saline with Tween-80",144 % of control
same,T/C,"dose: 25.0 mg/kg/injection, schedule: Q01DX009 (ip), vehicle: saline with Tween-80",147 % of control
same,T/C,"dose: 25.0 mg/kg/injection, schedule: Q04DX003 (ip), vehicle: saline with Tween-80",131 % of control
same,survivor count,"dose: 50.0 mg/kg/injection, schedule: Q01DX009 (ip), vehicle: saline with Tween-80",5 of 6
same,survivor count,[3],5 of 6
same,survivor count,[4],5 of 6
same,survivor count,[2],0 of 6
CCNCCCCNCC,survivor count,"dose: 100.0 mg/kg/injection, schedule: Q01DX009 (ip), vehicle: saline with Tween-80",5 of 6
same,survivor count,[4],0 of 6
same,survivor count,[2],0 of 6
O=C(OCc1ccccc1CN1CCOCC1)c1cccc(Br)c1,T/C,"dose: 100.0 mg/kg/injection, schedule: Q04DX002 (ip), vehicle: Klucel (hydroxypropylcellulose) (HPC)",141 % of control
N#Cc1oc2ccccc2c1OC(=O)C(F)(F)F,survivor count,[2],0 of 6
Cc1nnc2c3ccccc3c(-c3ccccc3)nn12,survivor count,"dose: 400.0 mg/kg/injection, schedule: Q01DX001 (ip), vehicle: carboxymethylcellulose (CMC)",6 of 6
NC(CSC(c1ccccc1)(c1ccccc1)c1ccc(CBr)cc1)C(=O)O (stereo not given),T/C,"dose: 400.0 mg/kg/injection, schedule: Q01DX009 (ip), vehicle: other",138 % of control
CCCCCCCCCC(C)CC1CCCCC1 (stereo not given),survivor count,"dose: 400.0 mg/kg/injection, schedule: Q01DX001 (ip), vehicle: saline with Tween-80",6 of 6
CON(C)CC(Cl)c1ccccc1 (stereo not given),survivor count,[3],5 of 6
same,survivor count,[4],1 of 6
same,survivor count,[2],0 of 6
C[N+](C)(CCN1C(=O)c2ccc3c4c(ccc(c24)C1=O)C(=O)N(CC[N+](C)(C)Cc1ccccc1)C3=O)Cc1ccccc1,survivor count,"dose: 1.56 mg/kg/injection, schedule: Q01DX001 (ip), vehicle: saline",6 of 6
same,survivor count,"dose: 3.13 mg/kg/injection, schedule: Q01DX001 (ip), vehicle: saline",1 of 6
same,survivor count,"dose: 6.25 mg/kg/injection, schedule: Q01DX001 (ip), vehicle: saline",2 of 6
same,survivor count,"dose: 12.5 mg/kg/injection, schedule: Q01DX001 (ip), vehicle: saline",1 of 6
same,survivor count,"dose: 25.0 mg/kg/injection, schedule: Q01DX001 (ip), vehicle: saline",0 of 6
same,survivor count,"dose: 50.0 mg/kg/injection, schedule: Q01DX001 (ip), vehicle: saline",0 of 6
same,survivor count,"dose: 100.0 mg/kg/injection, schedule: Q01DX001 (ip), vehicle: saline",1 of 6
same,survivor count,"dose: 200.0 mg/kg/injection, schedule: Q01DX001 (ip), vehicle: saline",0 of 6
Cc1ccc(NC(=S)N2CCC(CCCC3CCN(C(=S)Nc4ccc(C)cc4C)CC3)CC2)c(C)c1,survivor count,"dose: 400.0 mg/kg/injection, schedule: Q04DX003 (ip), vehicle: Klucel (hydroxypropylcellulose) (HPC)",6 of 6
NC(Cc1ccc(OC2CCCC2)c(N(CCCl)CCCl)c1)C(=O)O (stereo not given),T/C,"dose: 1.2 mg/kg/injection, schedule: Q01DX009 (ip), vehicle: carboxymethylcellulose (CMC)",133 % of control
same,T/C,"dose: 2.5 mg/kg/injection, schedule: Q01DX009 (ip), vehicle: carboxymethylcellulose (CMC)",133 % of control
same,T/C,"dose: 5.0 mg/kg/injection, schedule: Q01DX009 (ip), vehicle: carboxymethylcellulose (CMC)",143 % of control
same,T/C,"dose: 5.7 mg/kg/injection, schedule: Q01DX009 (ip), vehicle: carboxymethylcellulose (CMC)",144 % of control
same,T/C,"dose: 13.0 mg/kg/injection, schedule: Q01DX009 (ip), vehicle: saline",128 % of control
same,T/C,"dose: 15.0 mg/kg/injection, schedule: Q01DX001 (ip), vehicle: carboxymethylcellulose (CMC)",125 [4 of 6 alive] and 147 % of control
same,T/C,"dose: 20.0 mg/kg/injection, schedule: Q01DX001 (ip), vehicle: carboxymethylcellulose (CMC)",128 % of control
same,survivor count,"dose: 20.0 mg/kg/injection, schedule: Q01DX009 (ip), vehicle: carboxymethylcellulose (CMC)",2 of 6
same,T/C,"dose: 30.0 mg/kg/injection, schedule: Q01DX001 (ip), vehicle: carboxymethylcellulose (CMC)",125 % of control
same,survivor count,"dose: 30.0 mg/kg/injection, schedule: Q01DX009 (ip), vehicle: carboxymethylcellulose (CMC)",0 of 6
same,survivor count,"dose: 60.0 mg/kg/injection, schedule: Q01DX001 (ip), vehicle: carboxymethylcellulose (CMC)",1 of 6
same,survivor count,"dose: 75.0 mg/kg/injection, schedule: Q01DX001 (ip), vehicle: carboxymethylcellulose (CMC)",0 of 6
same,survivor count,"dose: 150.0 mg/kg/injection, schedule: Q01DX001 (ip), vehicle: carboxymethylcellulose (CMC)",0 of 6
same,survivor count,"dose: 300.0 mg/kg/injection, schedule: Q01DX001 (ip), vehicle: carboxymethylcellulose (CMC)",0 of 6
